Assay results from US11691972B2, “Compounds for targeted degradation of BRD9” (C4 Therapeutics, Inc., priority 2020, dated 2023).

By UniProt entry, the sequences of proteins in these tests, tags left out.
UniProt Q9H8M2, whole entry: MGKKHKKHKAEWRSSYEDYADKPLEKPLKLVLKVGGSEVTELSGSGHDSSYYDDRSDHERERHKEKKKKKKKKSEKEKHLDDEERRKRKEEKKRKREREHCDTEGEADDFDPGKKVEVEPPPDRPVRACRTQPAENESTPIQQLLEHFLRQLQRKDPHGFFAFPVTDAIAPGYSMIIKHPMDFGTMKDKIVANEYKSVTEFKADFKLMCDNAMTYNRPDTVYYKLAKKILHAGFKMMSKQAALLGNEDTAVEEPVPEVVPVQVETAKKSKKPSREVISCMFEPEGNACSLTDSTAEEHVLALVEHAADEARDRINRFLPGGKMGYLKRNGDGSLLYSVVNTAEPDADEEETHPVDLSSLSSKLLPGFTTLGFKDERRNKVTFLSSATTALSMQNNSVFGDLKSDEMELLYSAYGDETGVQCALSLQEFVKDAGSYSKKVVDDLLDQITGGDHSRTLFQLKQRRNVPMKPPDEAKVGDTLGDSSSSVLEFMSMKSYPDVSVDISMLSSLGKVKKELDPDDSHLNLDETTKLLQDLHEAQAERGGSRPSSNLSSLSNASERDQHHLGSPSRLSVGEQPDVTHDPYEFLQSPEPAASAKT

Target: BRD9 (Homo sapiens, UniProt Q9H8M2)
Experiment: HiBiT BRD9 degradation assay in 293T.166 (BRD9-HiBiT) cells
Description: Selected compounds were tested in a BRD9 degradation assay using the HiBit Method.
Dulbecco's modified Eagle medium (DMEM) without phenol red and fetal bovine serum (FBS) were purchased from Gibco (Grand Island, N.Y., USA). Nano-Glo® HiBiT Lytic Assay System was purchased from Promega (Madison, Wis., USA). 293T.166 (BRD9-HiBiT) cell line, endogenously expressing BRD9 with HiBiT fusion tag via CRISPR and ectopically expressing LgBiT tag, was purchased from Promega (Madison, Wis., USA). 293T.167 (BRD7-HiBiT) cell line, endogenously expressing BRD7 with HiBiT fusion tag via CRISPR and ectopically expressing LgBiT tag, was purchased from Promega (Madison, Wis., USA). 293T.92 (BRD4-HiBiT) cell line, endogenously expressing BRD4 with HiBiT fusion tag via CRISPR and ectopically expressing LgBiT tag, was generated in-house. Cell culture flasks and 384-well microplates were acquired from VWR (Radnor, Pa., USA).
BRD9 degradation was determined based on quantification of luminescent signal using Nano-Glo® HiBiT Lytic Assay kit. Test compounds were added to the 384-well plate from a top concentration of 10 μM with 11 points, half log titration in duplicates. 293T.166 cells were added into 384-well plates at a cell density of 10,000 cells per well. The plates were kept at 37° C. with 5% CO2 for 2 hours. BRD7 and BRD4 degradation was similarly determined with 293T.167 cells and 293T.92 cells, respectively. The cells treated in the absence of the test compound were the negative control and the cells without Nano-Glo® HiBiT Lytic reagent were the positive control. After 2-hour incubation, Nano-Glo® HiBiT Lytic Assay reagents were added to the cells. Luminescence was acquired on EnVision™ Multilabel Reader (PerkinElmer, Santa Clara, Calif., USA).

[1] = read-out: HiBiT-Degradation 293T.166 BRD9 2.0 hours (DC50), Table 1, 293T.166 cells, class symbols
[2] = read-out: HiBiT-Degradation 293T.166 BRD9 2.0 hours (DC50), Table 2, 293T.166 cells, class symbols

SMILES | DC50 [1] [µM] | DC50 [2] [µM] | DC50 (read-out: HiBiT-Degradation 293T.166 BRD9 2.0 hours (DC50), Table 2, 293T.166 cells, numeric bound) [µM]
Cn1cc(-c2ccc(C(=O)N3CCC(C4CCN(c5ccc(NC6CCC(=O)NC6=O)cc5F)CC4)CC3)c(OC(F)(F)F)c2)c2ccccc2c1=O (centres unmarked) | < 0.1 |  | 
COc1cc(-c2cn(C)c(=O)c3[nH]ncc23)cc(Cl)c1CN1CCC(N(C)C(=O)N2CCC(c3ccc(NC4CCC(=O)NC4=O)cc3F)CC2)CC1 (centres unmarked) | < 0.1 |  | 
Cc1c(-c2ccc(C(=O)N3CCC(N4CCN(c5ccc(NC6CCC(=O)NC6=O)cc5F)CC4)C(F)(F)C3)c(OC(F)(F)F)c2)cn(C)c(=O)c1C (single isomer, unassigned) |  | < 0.1 | > 0.8
CC(c1ccc(-c2cn(C)c(=O)c3cnccc23)cc1OC(F)(F)F)N1CCC(N(C)C(=O)N2CCC(c3ccc(NC4CCC(=O)NC4=O)cc3F)CC2)CC1 (centres unmarked) | < 0.1 |  | 
COc1cc(-c2cn(C)c(=O)c3cnccc23)cc(Cl)c1CN1CCC(F)(C2CCN(c3ccc(NC4CCC(=O)NC4=O)cc3F)CC2)CC1 (centres unmarked) |  | < 0.1 | 
COc1cc(-c2cn(C)c(=O)c3cnccc23)cc(Cl)c1CN1CCC(N2CCN(c3c(F)cc(NC4CCC(=O)NC4=O)cc3F)CC2)C(F)(F)C1 (centres unmarked) |  | < 0.1 | 
COc1cc(-c2cn(C)c(=O)c3cnccc23)cc(Cl)c1CN1CCC(F)(CCC2CCN(c3ccc(NC4CCC(=O)NC4=O)cc3Cl)CC2)CC1 (centres unmarked) |  | < 0.1 | 

Where two headings read alike, the source gives them in different places. The match of structure and compound is tentative.
